Measurements published in PubChem BioAssay AID330 (DTP/NCI, 2004).
The list shows only some results of the screen, not a fair sample: it is rich in T/C values a quarter to a half above the control, in often repeated tests (any T/C) and in doses without a T/C. Further doses and runs are listed elsewhere. T/C is the treated group as % of the vehicle group. Some entries give survivors of the animals treated and no T/C: the source holds a T/C of zero for them, seemingly a mark for toxic or unscored doses. Some survivor counts are full or nearly so, which does not show that the dose was tolerated: survival well below the control is almost never listed, so the zero probably covers shortened survival too. Survivors were counted at the toxicity check, usually on the fifth day, unless a day is given; later deaths do not show. Schedule codes are those of the source, read here as Q, the interval in days (D) or hours (H), X, the number of doses. Some entries were tested several times; the results are listed from low to high. Where survival is the endpoint, the PubChem record calls one and a half times the control and up active, and a quarter to a half above the control has no call in these data; cut-offs in other NCI protocols can differ. Additions like (4×) say how often a value occurs here. Some T/C values are followed by the survivors on the day toxicity was checked, most often the fifth; where none is given, no animal had died by that day.

Test system: P388 leukemia ip, CD2F1 mice, survival T/C
Experiment: NCI In Vivo Anticancer Drug Screen. Data for tumor model P388 Leukemia (intraperitoneal) in CD2F1 (CDF1) mice
Details: T/C endpoint: median survival time, higher T/C = longer survival
[1] = dose: 2.0 mg/kg/injection, schedule: Q01DX009 (ip), vehicle: Klucel (hydroxypropylcellulose) (HPC)
[2] = dose: 100.0 mg/kg/injection, schedule: Q01DX009 (ip), vehicle: saline with Tween-80
[3] = dose: 200.0 mg/kg/injection, schedule: Q01DX009 (ip), vehicle: saline with Tween-80
[4] = dose: 50.0 mg/kg/injection, schedule: Q01DX005 (ip), vehicle: Klucel (hydroxypropylcellulose) (HPC)
[5] = dose: 100.0 mg/kg/injection, schedule: Q01DX005 (ip), vehicle: Klucel (hydroxypropylcellulose) (HPC)
[6] = dose: 200.0 mg/kg/injection, schedule: Q01DX005 (ip), vehicle: Klucel (hydroxypropylcellulose) (HPC)

## COC1=C(C)C(=O)C2=C(C1=O)C1C3CC4=C(C(=O)C(OC)=C(C)C4=O)C(CNC(=O)C(C)=O)N3C(C#N)C(C2)N1C (configuration not stated)
dose: 0.06 mg/kg/injection, schedule: Q01DX009 (ip), vehicle: Klucel (hydroxypropylcellulose) (HPC)
  T/C: 133 % of control
dose: 0.12 mg/kg/injection, schedule: Q01DX009 (ip), vehicle: Klucel (hydroxypropylcellulose) (HPC)
  T/C: 132 and 135 % of control
dose: 0.12 mg/kg/injection, schedule: Q01DX009 (ip), vehicle: saline
  T/C: 130 % of control
dose: 0.25 mg/kg/injection, schedule: Q01DX009 (ip), vehicle: Klucel (hydroxypropylcellulose) (HPC)
  T/C: 112 [4 of 6 alive], 125, 133, 137, 150 % of control
dose: 0.25 mg/kg/injection, schedule: Q01DX009 (ip), vehicle: saline
  T/C: 130 % of control
dose: 0.31 mg/kg/injection, schedule: Q01DX009 (ip), vehicle: Klucel (hydroxypropylcellulose) (HPC)
  T/C: 133 % of control
dose: 0.5 mg/kg/injection, schedule: Q01DX009 (ip), vehicle: Klucel (hydroxypropylcellulose) (HPC)
  T/C: 134, 135, 139, 150, 171 % of control
dose: 0.5 mg/kg/injection, schedule: Q01DX009 (ip), vehicle: saline
  T/C: 137 % of control
dose: 1.0 mg/kg/injection, schedule: Q01DX009 (ip), vehicle: Klucel (hydroxypropylcellulose) (HPC)
  T/C: 142, 146 [5 of 6 alive], 166, 177, 180 % of control
dose: 1.25 mg/kg/injection, schedule: Q01DX009 (sc), vehicle: Klucel (hydroxypropylcellulose) (HPC)
  survivor count: 6 of 6
[1]
  T/C: 105 and 147 % of control
  survivor count: 0 of 6 and 4 of 6
dose: 2.25 mg/kg/injection, schedule: Q01DX009 (ip), vehicle: Klucel (hydroxypropylcellulose) (HPC)
  survivor count: 3 of 6
dose: 2.5 mg/kg/injection, schedule: Q01DX009 (ip), vehicle: Klucel (hydroxypropylcellulose) (HPC)
  survivor count: 5 of 6
dose: 2.5 mg/kg/injection, schedule: Q01DX009 (sc), vehicle: Klucel (hydroxypropylcellulose) (HPC)
  survivor count: 2 of 6 and 4 of 6
dose: 4.0 mg/kg/injection, schedule: Q01DX009 (ip), vehicle: Klucel (hydroxypropylcellulose) (HPC)
  survivor count: 4 of 6
dose: 4.5 mg/kg/injection, schedule: Q01DX009 (ip), vehicle: Klucel (hydroxypropylcellulose) (HPC)
  survivor count: 2 of 6
dose: 5.0 mg/kg/injection, schedule: Q01DX009 (ip), vehicle: Klucel (hydroxypropylcellulose) (HPC)
  survivor count: 2 of 6
dose: 5.0 mg/kg/injection, schedule: Q01DX009 (sc), vehicle: Klucel (hydroxypropylcellulose) (HPC)
  survivor count: 1 of 6
dose: 9.0 mg/kg/injection, schedule: Q01DX009 (ip), vehicle: Klucel (hydroxypropylcellulose) (HPC)
  survivor count: 0 of 6
dose: 10.0 mg/kg/injection, schedule: Q01DX009 (sc), vehicle: Klucel (hydroxypropylcellulose) (HPC)
  survivor count: 0 of 6
dose: 18.0 mg/kg/injection, schedule: Q01DX009 (ip), vehicle: Klucel (hydroxypropylcellulose) (HPC)
  survivor count: 0 of 6
dose: 20.0 mg/kg/injection, schedule: Q01DX009 (sc), vehicle: Klucel (hydroxypropylcellulose) (HPC)
  survivor count: 0 of 6
dose: 36.0 mg/kg/injection, schedule: Q01DX009 (ip), vehicle: Klucel (hydroxypropylcellulose) (HPC)
  survivor count: 0 of 6

## CCOS(=O)(=O)CCl
[2]
  survivor count: 5 of 5
[3]
  survivor count: 0 of 6

## CC(C)(C)C1=CS(=O)(=O)C1
dose: 6.25 mg/kg/injection, schedule: Q01DX001 (ip), vehicle: saline with Tween-80
  survivor count: 0 of 6
dose: 12.5 mg/kg/injection, schedule: Q01DX001 (ip), vehicle: saline with Tween-80
  survivor count: 0 of 6
dose: 25.0 mg/kg/injection, schedule: Q01DX001 (ip), vehicle: saline with Tween-80
  survivor count: 0 of 6
dose: 50.0 mg/kg/injection, schedule: Q01DX001 (ip), vehicle: saline with Tween-80
  survivor count: 0 of 6
dose: 100.0 mg/kg/injection, schedule: Q01DX001 (ip), vehicle: saline with Tween-80
  survivor count: 0 of 6
dose: 200.0 mg/kg/injection, schedule: Q01DX001 (ip), vehicle: saline with Tween-80
  survivor count: 0 of 6
dose: 400.0 mg/kg/injection, schedule: Q01DX001 (ip), vehicle: saline with Tween-80
  survivor count: 0 of 6

## CN(C)CCCNc1nc(-c2cccc(C(Cl)(Cl)Cl)c2)nc(C(Cl)(Cl)Cl)n1
[2]
  survivor count: 4 of 6
[3]
  survivor count: 0 of 6

## CN1c2ccccc2N=Cc2c1oc1ccc3ccccc3c1c2=O
[4]
  survivor count: 0 of 6
[5]
  survivor count: 3 of 6
[6]
  survivor count: 1 of 6

## N#CSCc1c(Cl)cccc1Cl
dose: 400.0 mg/kg/injection, schedule: Q01DX009 (ip), vehicle: other
  survivor count: 0 of 6

## CCCCCC(=O)OCCN1CCN(CCCN2c3ccccc3Sc3ccc(C(F)(F)F)cc32)CC1
dose: 50.0 mg/kg/injection, schedule: Q01DX009 (ip), vehicle: Klucel (hydroxypropylcellulose) (HPC)
  survivor count: 3 of 6 and 5 of 6
dose: 100.0 mg/kg/injection, schedule: Q01DX009 (ip), vehicle: Klucel (hydroxypropylcellulose) (HPC)
  survivor count: 4 of 6
dose: 200.0 mg/kg/injection, schedule: Q01DX009 (ip), vehicle: Klucel (hydroxypropylcellulose) (HPC)
  survivor count: 0 of 6

## C=C1CC2(CCS(=O)(=O)c3ccccc32)OC1=O (configuration not stated)
dose: 100.0 mg/kg/injection, schedule: Q04DX002 (ip), vehicle: saline with Tween-80
  survivor count: 4 of 6
dose: 200.0 mg/kg/injection, schedule: Q04DX002 (ip), vehicle: saline with Tween-80
  survivor count: 0 of 6
dose: 400.0 mg/kg/injection, schedule: Q04DX002 (ip), vehicle: saline with Tween-80
  survivor count: 0 of 6

## CC(=O)NC(Cn1cc(C(N)=O)ccc1=N)C(=O)O (configuration not stated)
dose: 12.5 mg/kg/injection, schedule: Q01DX005 (ip), vehicle: Klucel (hydroxypropylcellulose) (HPC)
  T/C: 129 % of control
dose: 25.0 mg/kg/injection, schedule: Q01DX005 (ip), vehicle: Klucel (hydroxypropylcellulose) (HPC)
  survivor count: 0 of 6 and 4 of 6
[4]
  survivor count: 0 of 6
[5]
  survivor count: 0 of 6
[6]
  survivor count: 0 of 6

## O=C(Oc1ccc(C2c3cc(OC(=O)c4ccccc4)c(OC(=O)c4ccccc4)cc3CC3C(=O)OCC32)cc1OC(=O)c1ccccc1)c1ccccc1 (configuration not stated)
dose: 100.0 mg/kg/injection, schedule: Q01DX005 (ip), vehicle: saline with Tween-80
  survivor count: 5 of 5

## CC1[C@@H]2CC=C3[C@H]4CCC5Cc6nc7c(nc6C[C@@]5(C)C4CC(=O)[C@]32CO[C@]12OC(C)(C)CC2O)CC1CC[C@@H]2C3=C[C@H]4O[C@@]5(O[C@@](C)(CO)C[C@@H]5O)C(C)[C@@]4(O)[C@]3(C)[C@@H](O)CC2[C@]1(C)C7 (some centres not stated)
dose: 0.16 mg/kg/injection, schedule: Q01DX009 (ip), vehicle: saline + alcohol
  survivor count: 3 of 6
dose: 0.32 mg/kg/injection, schedule: Q01DX009 (ip), vehicle: saline + alcohol
  survivor count: 0 of 5
dose: 0.65 mg/kg/injection, schedule: Q01DX009 (ip), vehicle: saline + alcohol
  survivor count: 0 of 4
dose: 40.0 micrograms/kg/injection, schedule: Q01DX005 (ip), vehicle: saline + alcohol
  T/C: 131 % of control (2×)
dose: 80.0 micrograms/kg/injection, schedule: Q01DX005 (ip), vehicle: saline + alcohol
  survivor count: 5 of 6

## CNC(=O)Oc1cccc(N=CN(C)C)c1
dose: 7.5 mg/kg/injection, schedule: Q01DX005 (ip), vehicle: saline
  survivor count: 0 of 6
dose: 15.0 mg/kg/injection, schedule: Q01DX005 (ip), vehicle: saline
  survivor count: 0 of 6
dose: 30.0 mg/kg/injection, schedule: Q01DX005 (ip), vehicle: saline
  survivor count: 0 of 6
dose: 60.0 mg/kg/injection, schedule: Q01DX005 (ip), vehicle: saline
  survivor count: 0 of 6
dose: 120.0 mg/kg/injection, schedule: Q01DX005 (ip), vehicle: saline
  survivor count: 0 of 6
dose: 240.0 mg/kg/injection, schedule: Q01DX005 (ip), vehicle: saline
  survivor count: 0 of 6
